Assay results as given in PubChem BioAssay AID328 (DTP/NCI, 2004).
The list is a part of this screen's results and no random one: it is rich in T/C values a quarter to a half above the control, in often repeated tests (any T/C) and in doses without a T/C. Further doses and runs are listed elsewhere. T/C gives the treated animals as a percentage of the vehicle group. Some doses have a count of surviving animals in place of a T/C: the source holds a T/C of zero for them, seemingly a mark for toxic or unscored doses. Some survivor counts are full or nearly so, which does not show that the dose was tolerated: the source hardly ever lists a survival T/C far under the control, and the zero likely stands for such cases as well. Counts of survivors are from the toxicity check (mostly the fifth day) where no day follows; animals may have died later. Schedules are NCI's codes, taken here to give the interval after Q, in days (D) or hours (H), and the number of doses after X. Some entries hold several experiments; their values stand side by side, smallest first. For survival time, the PubChem record calls one and a half times the control and up active, and a quarter to a half above the control has no call in these data; cut-offs in other NCI protocols can differ. Some T/C values carry the count of animals alive at the toxicity check (mostly the fifth day); where none is given, no animal had died by that day.

Test system: BDF1 mice, P388 leukemia ip, median survival T/C
Experiment: NCI In Vivo Anticancer Drug Screen. Data for tumor model P388 Leukemia (intraperitoneal) in B6D2F1 (BDF1) mice
Conditions: T/C endpoint: median survival time, higher T/C = longer survival
Method in brief: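 Reported as T/C, where T is the survival measurement in dosed animals and C the same measurement in vehicle controls.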

[1] = dose: 128.0 mg/kg/injection, schedule: Q01DX009 (ip), vehicle: other
[2] = dose: 160.0 mg/kg/injection, schedule: Q01DX009 (ip), vehicle: saline

COc1cc2cc3c4cc(OC)c(OC)cc4cc[n+]3c(C)c2cc1OC (tested in a mixture with another compound)
T/C (dose: 5.0 mg/kg/injection, schedule: Q01DX009 (ip), vehicle: saline): 136, 141, 157, 180 % of control
T/C (dose: 8.0 mg/kg/injection, schedule: Q01DX008 (ip), vehicle: Klucel (hydroxypropylcellulose) (HPC)): 133 % of control
T/C (dose: 8.0 mg/kg/injection, schedule: Q01DX008 (ip), vehicle: water): 147 % of control
T/C (dose: 8.0 mg/kg/injection, schedule: Q01DX009 (ip), vehicle: Klucel (hydroxypropylcellulose) (HPC), evaluated on day 30): 146 % of control
T/C (dose: 8.0 mg/kg/injection, schedule: Q01DX009 (ip), vehicle: Klucel (hydroxypropylcellulose) (HPC), evaluated on day 60): 141 % of control
T/C (dose: 8.0 mg/kg/injection, schedule: Q01DX009 (ip), vehicle: other, evaluated on day 30): 169 % of control
T/C (dose: 8.0 mg/kg/injection, schedule: Q01DX009 (ip), vehicle: other, evaluated on day 60): 142, 145, 155 % of control
T/C (dose: 8.0 mg/kg/injection, schedule: Q03HX016 (ip), vehicle: other): 137 % of control [8 of 10 alive]
T/C (dose: 8.0 mg/kg/injection, schedule: Q03HX024 (ip), vehicle: other): 145 % of control
T/C (dose: 10.0 mg/kg/injection, schedule: Q01DX009 (ip), vehicle: saline): 150, 159, 159 [5 of 6 alive], 169 % of control [5 of 6 alive]
T/C (dose: 12.5 mg/kg/injection, schedule: Q04DX003 (ip), vehicle: water): 131 % of control
T/C (dose: 16.0 mg/kg/injection, schedule: Q01DX008 (ip), vehicle: Klucel (hydroxypropylcellulose) (HPC)): 137 % of control
T/C (dose: 16.0 mg/kg/injection, schedule: Q01DX009 (ip), vehicle: Klucel (hydroxypropylcellulose) (HPC)): 142 % of control
T/C (dose: 16.0 mg/kg/injection, schedule: Q01DX009 (ip), vehicle: other, evaluated on day 30): 176 % of control [9 of 10 alive]
T/C (dose: 16.0 mg/kg/injection, schedule: Q01DX009 (ip), vehicle: other, evaluated on day 60): 150 [9 of 10 alive], 151 [9 of 10 alive], 153 % of control
T/C (dose: 16.0 mg/kg/injection, schedule: Q03HX008 (ip), vehicle: other): 125 % of control [9 of 10 alive]
T/C (dose: 18.7 mg/kg/injection, schedule: Q01DX009 (ip), vehicle: saline): 145 % of control [7 of 10 alive]
T/C (dose: 20.0 mg/kg/injection, schedule: Q01DX009 (ip), vehicle: saline): 170, 170 [5 of 6 alive], 181, 183 % of control
T/C (dose: 25.0 mg/kg/injection, schedule: Q04DX003 (ip), vehicle: other): 131 % of control
T/C (dose: 25.0 mg/kg/injection, schedule: Q04DX003 (ip), vehicle: water): 146 % of control
T/C (dose: 32.0 mg/kg/injection, schedule: Q01DX009 (ip), vehicle: Klucel (hydroxypropylcellulose) (HPC)): 144 % of control
T/C (dose: 32.0 mg/kg/injection, schedule: Q01DX009 (ip), vehicle: other, evaluated on day 30): 188 % of control
T/C (dose: 32.0 mg/kg/injection, schedule: Q01DX009 (ip), vehicle: other, evaluated on day 60): 153 [9 of 10 alive], 168, 175 % of control
T/C (dose: 32.0 mg/kg/injection, schedule: Q03HX008 (ip), vehicle: other): 146 % of control
T/C (dose: 37.5 mg/kg/injection, schedule: Q01DX001 (ip), vehicle: saline): 141 % of control
T/C (dose: 40.0 mg/kg/injection, schedule: Q01DX009 (ip), vehicle: saline): 159, 168, 180, 185 % of control [4 of 6 alive]
T/C (dose: 50.0 mg/kg/injection, schedule: Q01DX009 (ip), vehicle: saline with Tween-80): 145 % of control
T/C (dose: 50.0 mg/kg/injection, schedule: Q04DX003 (ip), vehicle: other): 137 % of control
T/C (dose: 64.0 mg/kg/injection, schedule: Q01DX009 (ip), vehicle: other, evaluated on day 30): 228 % of control
T/C (dose: 64.0 mg/kg/injection, schedule: Q01DX009 (ip), vehicle: other, evaluated on day 60): 195 and 222 % of control
survivor count (dose: 64.0 mg/kg/injection, schedule: Q01DX009 (ip), vehicle: other): 6 of 10
T/C (dose: 64.0 mg/kg/injection, schedule: Q01DX009 (sc), vehicle: other): 134 % of control
survivor count (dose: 64.0 mg/kg/injection, schedule: Q03HX008 (ip), vehicle: other): 2 of 10
survivor count (dose: 64.0 mg/kg/injection, schedule: Q03HX016 (ip), vehicle: other): 1 of 10
survivor count (dose: 64.0 mg/kg/injection, schedule: Q03HX024 (ip), vehicle: other): 0 of 10
T/C (dose: 64.0 mg/kg/injection, schedule: Q04DX003 (ip), vehicle: Klucel (hydroxypropylcellulose) (HPC)): 139 % of control
T/C (dose: 64.0 mg/kg/injection, schedule: Q08DX002 (ip), vehicle: other): 133 % of control
T/C (dose: 80.0 mg/kg/injection, schedule: Q01DX009 (ip), vehicle: saline): 145, 168, 176, 229 % of control [5 of 6 alive]
survivor count (dose: 100.0 mg/kg/injection, schedule: Q01DX009 (ip), vehicle: saline with Tween-80): 4 of 6
T/C (dose: 100.0 mg/kg/injection, schedule: Q04DX003 (ip), vehicle: saline, evaluated on day 30): 145, 157, 178 % of control
T/C (dose: 100.0 mg/kg/injection, schedule: Q04DX003 (ip), vehicle: saline, evaluated on day 34): 186 % of control
T/C (dose: 128.0 mg/kg/injection, schedule: Q01DX001 (ip), vehicle: other): 127 % of control
survivor count (dose: 128.0 mg/kg/injection, schedule: Q01DX008 (ip), vehicle: Klucel (hydroxypropylcellulose) (HPC)): 2 of 6
survivor count (dose: 128.0 mg/kg/injection, schedule: Q01DX008 (ip), vehicle: water): 1 of 6
survivor count (dose: 128.0 mg/kg/injection, schedule: Q01DX009 (ip), vehicle: Klucel (hydroxypropylcellulose) (HPC)): 9 of 10
survivor count (dose: 128.0 mg/kg/injection, schedule: Q01DX009 (ip), vehicle: clinical formulation): 10 of 10
T/C [1]: 91 % of control
survivor count [1]: 8 of 10 and 10 of 10
survivor count (dose: 128.0 mg/kg/injection, schedule: Q03HX008 (ip), vehicle: other): 0 of 10
survivor count (dose: 128.0 mg/kg/injection, schedule: Q04DX003 (ip), vehicle: water): 3 of 6
survivor count (dose: 150.0 mg/kg/injection, schedule: Q01DX009 (ip), vehicle: saline): 6 of 10
T/C [2]: 122 [5 of 6 alive], 212 [4 of 6 alive], 225 % of control [5 of 6 alive]
survivor count [2]: 3 of 6
survivor count (dose: 200.0 mg/kg/injection, schedule: Q01DX009 (ip), vehicle: saline with Tween-80): 5 of 6
T/C (dose: 200.0 mg/kg/injection, schedule: Q04DX003 (ip), vehicle: saline, evaluated on day 30): 100, 163, 197 % of control
T/C (dose: 200.0 mg/kg/injection, schedule: Q04DX003 (ip), vehicle: saline, evaluated on day 34): 172 % of control
survivor count (dose: 200.0 mg/kg/injection, schedule: Q04DX003 (ip), vehicle: water): 4 of 6
survivor count (dose: 240.0 mg/kg/injection, schedule: Q04DX003 (ip), vehicle: other): 4 of 8
T/C (dose: 256.0 mg/kg/injection, schedule: Q01DX001 (ip), vehicle: other): 142 % of control [9 of 10 alive]
survivor count (dose: 256.0 mg/kg/injection, schedule: Q01DX008 (ip), vehicle: Klucel (hydroxypropylcellulose) (HPC)): 0 of 6
survivor count (dose: 256.0 mg/kg/injection, schedule: Q01DX008 (ip), vehicle: other): 0 of 6
survivor count (dose: 256.0 mg/kg/injection, schedule: Q01DX008 (ip), vehicle: water): 0 of 6
survivor count (dose: 256.0 mg/kg/injection, schedule: Q01DX009 (ip), vehicle: Klucel (hydroxypropylcellulose) (HPC)): 0 of 10 and 3 of 10
survivor count (dose: 256.0 mg/kg/injection, schedule: Q01DX009 (ip), vehicle: clinical formulation): 1 of 10
survivor count (dose: 256.0 mg/kg/injection, schedule: Q01DX009 (ip), vehicle: other): 0 of 10, 3 of 10, 7 of 10
T/C (dose: 256.0 mg/kg/injection, schedule: Q01DX009 (sc), vehicle: other): 134 % of control [7 of 10 alive]
survivor count (dose: 256.0 mg/kg/injection, schedule: Q04DX003 (ip), vehicle: water): 3 of 6
survivor count (dose: 400.0 mg/kg/injection, schedule: Q01DX009 (ip), vehicle: saline with Tween-80): 0 of 6
survivor count (dose: 400.0 mg/kg/injection, schedule: Q04DX002 (ip), vehicle: saline): 1 of 3
survivor count (dose: 400.0 mg/kg/injection, schedule: Q04DX003 (ip), vehicle: other): 0 of 8
T/C (dose: 400.0 mg/kg/injection, schedule: Q04DX003 (ip), vehicle: saline, evaluated on day 30): 175 % of control
T/C (dose: 400.0 mg/kg/injection, schedule: Q04DX003 (ip), vehicle: saline, evaluated on day 34): 195 % of control
survivor count (dose: 400.0 mg/kg/injection, schedule: Q04DX003 (ip), vehicle: saline): 2 of 6 and 3 of 6
survivor count (dose: 512.0 mg/kg/injection, schedule: Q01DX001 (ip), vehicle: other): 0 of 10
survivor count (dose: 512.0 mg/kg/injection, schedule: Q01DX009 (sc), vehicle: other): 3 of 10
survivor count (dose: 512.0 mg/kg/injection, schedule: Q04DX003 (ip), vehicle: Klucel (hydroxypropylcellulose) (HPC)): 2 of 6
survivor count (dose: 512.0 mg/kg/injection, schedule: Q04DX003 (ip), vehicle: other): 0 of 10 and 1 of 6
survivor count (dose: 512.0 mg/kg/injection, schedule: Q04DX003 (ip), vehicle: water): 1 of 6
survivor count (dose: 512.0 mg/kg/injection, schedule: Q08DX002 (ip), vehicle: other): 1 of 10
survivor count (dose: 600.0 mg/kg/injection, schedule: Q01DX001 (ip), vehicle: saline): 10 of 10
survivor count (dose: 600.0 mg/kg/injection, schedule: Q04DX003 (ip), vehicle: saline): 10 of 10
survivor count (dose: 1024.0 mg/kg/injection, schedule: Q01DX001 (ip), vehicle: other): 0 of 10
survivor count (dose: 1024.0 mg/kg/injection, schedule: Q01DX001 (oral), vehicle: other): 4 of 10
survivor count (dose: 1024.0 mg/kg/injection, schedule: Q01DX001 (sc), vehicle: other): 6 of 10
